## Library screen at single concentrations

A: 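Whole-parasite assay of Trypanosoma brucei over 72 hours; the read-out is not stated. Tested at 30 µM. Direction is inferred from retests: higher values go with stronger inhibition. Values scatter widely below zero; nearly all retest evidence comes from the higher of the two concentrations used. Size under these conditions: about 64,000 compounds, about 940 of them at 50% or above in at least one test.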
B: 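Cell assay of Leishmania donovani living inside macrophages; the read-out is not stated. Tested at 30 µM. Higher reads as stronger inhibition (inferred: compounds with an IC50 in retests scored well above the rest). About 69,000 compounds were tested under these conditions; 1.5% (about 1,000) showed 50% or more at least once.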

The filed quantity is “Percent Effect” (%).
The controls that fix the scale are not given in the record; negative values are as filed.
The compounds are a random part of those screened.
Two or more numbers in one place are separate tests of the same structure; such repeats can differ widely.

For Cc1nc(N(C)C)ncc1C(=O)N(Cc1ccncc1)CC1CCCO1 (stereo unspecified) the result was A: -46.35%; B: 41.79%. Result for CC(C)n1ccnc1C1CCN(C(=O)c2cc[nH]n2)CC1 was A: 20.79%; B: 31.58%. O=C1CCCC2=C1C(c1ccccc1F)Nc1nonc1N2 (stereo unspecified) read B: 5.549%. With Cn1ccnc1CN1CCN(Cc2cc(-c3ccccc3)no2)CC1 the screen gave A: -46.96%; B: 10.94%. Result for CNC(=O)[C@@H]1C[C@@H](NC(=O)CSc2ccccc2)CN1C1CCOCC1 was A: -52.52%; B: -31.46%. With CC(C)c1n[nH]c(C2CN(C(=O)c3csnn3)CCO2)n1 (stereo unspecified) the screen gave A: 5.71%; B: 1.017%. Result for CC(C)c1nc(CNc2ccc(CNS(C)(=O)=O)cc2)cs1 was A: -9.995%; B: 21.12%.

With CC(C)c1nnc(CCC(=O)N2CCOC(c3cnccn3)C2)o1 (stereo unspecified) the screen gave A: -7.56%; B: 27.23%. For O=C1CSC(c2ccc(O)cc2)c2sccc2N1 (stereo unspecified) the result was A: -51.75%; B: -28.32%. For CN(Cc1ccccc1)CC1CC2(CO1)CN(Cc1nccs1)C2 (stereo unspecified) the result was A: -22.94%; B: -4.073% and 31.21%. With CCc1nccn1CCC(=O)N1CC(=O)N(c2ccccc2C)CC1C (stereo unspecified) the screen gave A: -2.205%; B: 8.96%. With CCCn1nc(C)c(CN2CC3(CCOC3)CCC2=O)c1C (stereo unspecified) the screen gave A: -21.66%; B: 5.803%. Result for CSCCC(C)NC(=O)N1CCSC(C)(C)C1 (stereo unspecified) was A: -32.61%; B: -16.11%. Result for COCCN(C)C[C@@H]1CN(C(=O)c2ccc3c(c2)OCO3)C[C@@H]1CO was A: -13.62%; B: 28.73%.

O=C(CNC1CCc2ncnn2C1)N(C1=CCCCC1)C1CC1 (stereo unspecified) gave A: 15.18%; B: 10.76%. Result for Cc1cc(S(=O)(=O)N2CCCN3CCCC3C2)ccc1F (stereo unspecified) was A: -35.13%; B: 22.66%. Result for COCc1noc(CCC(=O)c2ccc3c(c2)OCCO3)n1 was A: -27.24%; B: 22.85%. With CC1CCCN1C1CCN(C(=O)c2cccc(-c3ccoc3)c2)CC1 (stereo unspecified) the screen gave A: -28.74%; B: 14.54%. With COc1ccccc1CC(=O)N1CCC(NCc2c[nH]nc2C)CC1 the screen gave A: 1.89%; B: 15.25%. For CC(O)(CNC(=O)c1cccnc1-n1cccn1)c1ccsc1 (stereo unspecified) the result was A: -28.28%; B: 0.5341%. With COc1ccc(CNC2CCN(c3ccccc3)C2)c(OC)c1OC (stereo unspecified) the screen gave A: 18.89%; B: 9.378%.

Result for [H][C@]12CCN(C(=O)c3cnccn3)[C@@]1([H])CC[C@@H](COCC)O2 was A: -80.12%; B: -7.585%. COCC1COCCC12CCN(C(=O)CC1Cc3ccccc3C1)CC2 (stereo unspecified) gave A: -32.8%; B: 8.923%. Result for Cn1cc(CN2CCc3onc(C(=O)Nc4cccnc4)c3C2)cn1 was A: 5.603%; B: 24.89%. O=C(O)C(F)(F)F.[H][C@@]12COC[C@H](C(=O)N3CCCCO3)[C@]1([H])CN(Cc1c(C)noc1C)C2 read A: 28.32%; B: 6.619%. Result for Cn1ncc2c1CCCC2NCc1cccnc1 (stereo unspecified) was A: -8.249%; B: -48.92%. With O=C(O)C(F)(F)F.[H][C@@]12CCN(Cc3ccc(F)c(F)c3)[C@]1([H])CC[C@@H](C(=O)NCC1CC1)O2 the screen gave A: -32.99%; B: 10.66%. Cc1nc(-c2ccc(S(=O)(=O)N3CCCCC3)cc2)co1 gave A: -3.651%; B: 29.64%.

CC(=O)Nc1nc(C(=O)NCCOc2ccccc2)cs1 gave A: -23.26%; B: 20.16%. Cc1cc(C)c2cc(CNCc3ccccc3)c3nn(C)c(=O)n3c2c1 gave A: 17.22%; B: -5.897%. With CC(C)Oc1cc(N2CCC(N3CCC(O)CC3)CC2)nc(N)n1 the screen gave A: 5.226%; B: 41.8%. With Cc1ccc(C(C(=O)N2CCN(C(=O)c3ccc[nH]3)CC2)N(C)C)cc1 (stereo unspecified) the screen gave A: -27.35%; B: 30.6%. For COc1ccccc1NC(=O)c1ccc(C)n1C the result was A: -16.93%; B: 11.83%. Cc1nc(CN2CC[C@H](OCC3CC3)[C@@H]2Cc2cccnc2)cs1.O=C(O)C(F)(F)F.O=C(O)C(F)(F)F gave A: -53.44%; B: -10.72%. CCc1nnsc1C(=O)N1CCCN(Cc2cnn(C)c2)CC1 read A: -3.955%; B: 17.07%.

COCCN1CCN(C(=O)NC2CC2)Cc2ccc(C)nc21.O=C(O)C(F)(F)F read A: 11.3%; B: 28.97%. With COc1ccc2[nH]cc(C(=O)N3C[C@@H](O)[C@H](N4CCCC4)C3)c2c1 the screen gave B: -20.78%. For c1ccc(Cn2cc(CNC3CCc4ncnn4C3)cn2)cc1 (stereo unspecified) the result was A: 11.59%; B: 4.909%. For Cc1cc(CNc2cccc(C(=O)N(C)c3ccccc3)c2)no1 the result was A: -47.93%; B: 36.59%. N#CCCCS(=O)(=O)NC(=O)c1ccccc1F read A: -12.49%; B: 20.4%. [H][C@@]12CN(CCCc3ccccc3)C[C@]1([H])OCC(=O)N2Cc1nccn1C read A: -4.348%; B: 0.6089%. CCOCC1CN(C(=O)c2ccco2)Cc2nn(C)cc21 (stereo unspecified) read A: 5.284%; B: 9.735%.

For CCOC(CC)C(=O)NCc1ccnc(Oc2ccc(F)cc2)c1 (stereo unspecified) the result was A: -15.98%; B: 22.2%. For Cc1ccccc1-c1noc(CNc2ccc(F)cc2OCCO)n1 the result was A: -3.518%; B: 5.89%.

For reference, 3 entries once more:

SMILES,A,B
CC(=O)Nc1nc(C(=O)NCCOc2ccccc2)cs1,-23.26%,20.16%
Cc1cc(CNc2cccc(C(=O)N(C)c3ccccc3)c2)no1,-47.93%,36.59%
CC1CCCN1C1CCN(C(=O)c2cccc(-c3ccoc3)c2)CC1 (stereo unspecified),-28.74%,14.54%

Measurements from “University of Dundee, Small-Polar-MMV Screening Library” (2021), ChEMBL document CHEMBL3988442.